# Literature values in patent US20020022619A1, “Tricyclic fused pyridine and pyrimidine derivatives as CRF antagonists” (priority 2000, published 2002).
# At least one structure is not confirmed: it was looked up by name or label, or the drawing left a doubt.
# Columns and labels:
# [1] = test system: “anxiogenic” effects of CRF; conditions: rats; given with CRF; cited from earlier work
# [2] = test system: “anxiogenic” effects of CRF; conditions: rats; given with CRF; cited from earlier work; remark: listed apart in the source
smiles,measurement,setting,value
CNC1=Nc2ccc(Cl)cc2C(c2ccccc2)=[N+]([O-])C1 [Chlordiazepoxide],effect on the “anxiogenic” effects of CRF in the acoustic startle test,[1],attenuates
same,effect on the “anxiogenic” effects / actions of CRF in the conflict test,[2],attenuates
